PubChem BioAssay AID1259292, Sanger Institute – 2017
Screen: 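Kinase silencing that boosts cell killing by targeted cancer drugs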 (follow-up of hits). Cells: human colorectal cancer RCM1 cells. Reagents: single siRNA against human genes. Treatment: anchor drugs BYL719 at 1 µM, cetuximab at 5 µg/ml or trametinib at 10 nM, or DMSO vehicle; exposure time not given. Read-out: 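Viability of cells relative to control pool 2 (non-targeting) following DMSO or drug (BYL719 1 µM, cetuximab 5 µg/ml, trametinib 10 nM), plus synergy scores by drug; averaged replicates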. Reading the numbers: synergy score with trametinib and synergy score with cetuximab and synergy score with BYL719: higher = stronger combined killing beyond expected (synthetic lethal). Rule for the call: 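a gene counts as synergistic when its synergy score is over 0.10 with at least one of the three drugs; otherwise no synergy with any drug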. Calls: active = synergy with at least one anchor drug; inactive = no synergy with any anchor drug.
Here is an unselected part of 160 deposited reagents. 64 of them (40%) count as active. 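Four separate siRNAs per gene; a call can rest on any single drug, so look at each drug's score.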 Unmarked entries are inactive. The numbers tell different reagents against one gene apart. Further read-outs or replicates are left out here. No sequences are given here. The record does not give: the amount of reagent, the time to read-out.

no.	target gene	reagent	synergy score with trametinib	synergy score with cetuximab	synergy score with BYL719
1	RPS6KA4	1	0.0864	0.046	-0.0886
2	RPS6KA4	2	0.0674	-0.0479	-0.162
3	RPS6KA4	3	0.0401	0.000698	-0.0559
4	RPS6KA4	4	0.222 (active)	0.0911	0.166
5	NR2F2	1	0.177 (active)	0.0837	-0.096
6	NR2F2	2	0.0611	0.0726	-0.0129
7	NR2F2	3	0.186 (active)	0.035	-0.0799
8	NR2F2	4	0.191 (active)	-0.0835	-0.132
9	CHD4	1	-0.0514	0.00847	-0.275
10	CHD4	2	0.155 (active)	0.0264	-0.0182
11	CHD4	3	0.126 (active)	0.0292	-0.0553
12	CHD4	4	-0.0769	-0.048	-0.157
13	IRAK1	1	0.132 (active)	-0.0876	-0.0784
14	IRAK1	2	-0.0692	-0.029	-0.0462
15	IRAK1	3	-0.133	-0.0084	-0.0325
16	IRAK1	4	-0.144	-0.0686	-0.017
17	SYK	1	0.126 (active)	-0.0626	-0.00785
18	SYK	2	0.252 (active)	0.101	-0.192
19	SYK	3	0.00984	-0.0461	-0.0278
20	SYK	4	-0.169	-0.0686	-0.162
21	CDKN2D	1	0.204 (active)	0.0412	-0.158
22	CDKN2D	2	0.154 (active)	0.0452	0.113
23	CDKN2D	3	0.135 (active)	0.0206	0.0153
24	CDKN2D	4	0.271 (active)	0.0294	-0.0229
25	MARK3	1	-0.17	-0.0307	-0.212
26	MARK3	2	0.0369	-0.0686	-0.104
27	MARK3	3	0.0773 (active)	0.103	-0.0323
28	MARK3	4	0.263 (active)	-0.0318	-0.199
29	BRAF	1	0.144 (active)	-0.0126	0.0356
30	BRAF	2	0.248 (active)	-0.108	0.175
31	BRAF	3	-0.038	-0.108	-0.0943
32	BRAF	4	0.173 (active)	0.0142	-0.0264
33	PIM1	1	0.169 (active)	-0.0724	-0.0836
34	PIM1	2	0.0871	-0.069	-0.18
35	PIM1	3	-0.355	-0.0686	-0.162
36	PIM1	4	0.105 (active)	-0.0686	-0.089
37	IKBKB	1	0.0881	-0.0941	-0.12
38	IKBKB	2	-0.0109	0.0284	-0.0138
39	IKBKB	3	-0.109	-0.00835	0.0112
40	IKBKB	4	-0.123	-0.215	-0.217
41	HUNK	1	-0.0488	0.0781	0.0235
42	HUNK	2	0.0282	0.0326	-0.055
43	HUNK	3	0.0472	-0.0143	-0.148
44	HUNK	4	0.123 (active)	0.26	-0.0194
45	GRK5	1	-0.0191	-0.0625	-0.162
46	GRK5	2	-0.243	-0.0686	-0.153
47	GRK5	3	0.0136	-0.0473	-0.156
48	GRK5	4	0.0166	-0.0686	-0.162
49	SF3B1	1	-0.108	-0.0859	-0.12
50	SF3B1	2	0.0609 (active)	-0.0629	0.114
51	SF3B1	3	0.0365	-0.0647	-0.045
52	SF3B1	4	-0.104	-0.161	-0.119
53	PIK3CA	1	0.0244 (active)	0.211	0.0574
54	PIK3CA	2	0.0423	-0.0415	-0.0883
55	PIK3CA	3	-0.00505	0.0442	-0.00896
56	PIK3CA	4	-0.0206	-0.0686	-0.162
57	BMPR2	1	-0.109	-0.0686	-0.162
58	BMPR2	2	-0.0324	-0.0878	-0.212
59	BMPR2	3	-0.0861	-0.0686	-0.162
60	BMPR2	4	-0.296	-0.0686	-0.162
61	CAMK2N1	1	-0.0748	0.0156	-0.0972
62	CAMK2N1	2	0.0171	0.0528	-0.125
63	CAMK2N1	3	0.204 (active)	0.152	0.0933
64	CAMK2N1	4	-0.235	0.000697	-0.181
